Patent publication US20250196055A1, “PROCESS FOR CAPTURING CO2 FROM A MOBILE SOURCE USING AN AMINO ACID SOLVENT” (SAUDI ARABIAN OIL COMPANY, priority 2021, published 2025)

Assay: Continuous test plant: membrane contactor CO2 absorption from exhaust and solvent regeneration in stripper
Details: for CO2 capture rate: FIG. 10
[1] = 210 kPa stripper pressure, 120° C. stripper temperature, 3.75 kg/min liquid, 9 mol % CO2, 25 SCFM

Q: Which “Capture rate (%)” value does the source give for `O=C(O)[C@@H]1CCCN1` [3 m PRO, Proline] here?
A: The value was 7%.

Q: Which results are given for `NCCS(=O)(=O)O` [3 m TAU, taurine]?
A: CO2 capture rate (170 kPa regeneration pressure, listed as 3 m potassium taurinate): ~55%; Capture rate (%) (210 kPa stripper pressure, 120° C. stripper temperature, 3.75 kg/min liquid, 9 mol % CO2, 25 SCFM, listed as 3 m taurine): 45%; CO2 capture rate (250 kPa regeneration pressure, listed as 3 m potassium taurinate): 35%

Q: With `O=C(O)[C@@H]1CCCN1` [5 m PRO, Proline] as the molecule, how does the “Capture rate (%)” value read?
A: Its value is 6%.

Q: For `CNCC(=O)O` [5 m SAR, Sarcosine], which “Capture rate (%)” value [1] is on record?
A: The value was 21%.

Q: With `NCCS(=O)(=O)O` [5 m TAU, taurine] as the molecule, how does the CO2 capture rate (170 kPa regeneration pressure, listed as 5 m taurine) read?
A: Its CO2 capture rate is roughly 70%.

Q: What about the “Capture rate (%)” value (210 kPa stripper pressure, 120° C. stripper temperature, 3.75 kg/min liquid, 9 mol % CO2, 25 SCFM, listed as 5 m taurine) of the same molecule?
A: The value was 57%.

Q: And the CO2 capture rate (250 kPa regeneration pressure, listed as 5 m taurine)?
A: The CO2 capture rate was roughly 50%.

Q: Which “Capture rate (%)” value [1] does the source give for `NCCC(=O)O` [5 m b-ALA, Beta-alanine] here?
A: The value was 15%.

Read-outs that look alike come from different tables or passages of the source.
